{"source": "patent US20200256860A1", "about": "“PRINTABLE HYDROGELS FOR BIOMOLECULE IMMOBILIZATION AND STABILIZATION” (priority 2019, published 2020)", "key": {"[1]": {"experiment": "Long-term stability studies (storage at room temperature)", "assay_type": "physicochemical", "settings": "direct printed enzyme, within one month", "protocol": "Printed enzyme samples were stored in a closed, dark container at room temperature for time periods ranging from 7 days up to 3 months. Image acquisition and analysis was performed as described previously for the entrapment and proteinase K degradation studies. The intensity of each sample was measured and presented as a ratio of the corresponding control image (freshly printed)."}, "[2]": {"experiment": "Enzyme entrapment studies (residual activity after washing)", "assay_type": "physicochemical", "settings": "enzyme in printed hydrogel (POA+(POH+E)), washed 10 min in 10 mM PBS"}}, "note": "Some of these results come from one statement about several compounds together.", "data": [{"substance": "alkaline phosphatase", "values": [{"measurement": "Activity lost on storage", "setting": "[1]", "value": "> 70", "unit": "%"}, {"measurement": "Activity maintained after washing relative to unwashed control", "setting": "[2]", "value": "> 90", "unit": "%"}]}]}
